Results are given in words; binding and its absence hold for the method and conditions named. Binding seen in cells or lysates may run through a third protein. Some results given as binding are weak or reduced against the parent protein; the word gives no strength. Sequences can lack the tags named with a protein.
Molecular target: T1, human organic anion transporting polypeptide 1A2 with N-terminal Flag tag (OATP1A2-N-flag) (human) (UniProt P46721)
T1 sequence: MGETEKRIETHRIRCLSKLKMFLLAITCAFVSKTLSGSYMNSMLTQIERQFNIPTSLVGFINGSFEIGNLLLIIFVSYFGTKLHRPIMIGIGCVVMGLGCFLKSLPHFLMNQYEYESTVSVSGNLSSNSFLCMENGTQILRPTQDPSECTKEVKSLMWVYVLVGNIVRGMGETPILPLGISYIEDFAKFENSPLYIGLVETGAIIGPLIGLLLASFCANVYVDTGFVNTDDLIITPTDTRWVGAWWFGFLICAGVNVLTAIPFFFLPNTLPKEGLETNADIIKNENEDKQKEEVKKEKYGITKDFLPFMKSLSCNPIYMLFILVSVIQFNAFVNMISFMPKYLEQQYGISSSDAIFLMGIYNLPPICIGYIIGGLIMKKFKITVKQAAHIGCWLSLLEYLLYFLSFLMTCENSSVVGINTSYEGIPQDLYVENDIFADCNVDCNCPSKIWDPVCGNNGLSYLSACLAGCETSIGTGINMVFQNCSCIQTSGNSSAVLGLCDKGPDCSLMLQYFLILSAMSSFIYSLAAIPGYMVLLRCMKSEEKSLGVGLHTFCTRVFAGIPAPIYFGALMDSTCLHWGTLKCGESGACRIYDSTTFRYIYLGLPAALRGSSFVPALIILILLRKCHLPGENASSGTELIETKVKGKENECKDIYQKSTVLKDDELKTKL
Assay: co-IP; HEK-293 cells co-transfected with OATP1A2-N-flag and PDZK1-N-myc or NHERF1-N-myc; lysed 24 h later in 10 mM Tris/HCl, 10 mM NaCl, 0.5-1% Triton X-100, 2 mM EDTA, 10% glycerol, pH 7.5; precipitated with anti-flag antibody and protein G-agarose at 4°C, blotted with anti-myc

B1: PDZK1 with N-terminal myc tag (PDZK1-N-myc) (protein, UniProt Q5T2W1 1-519)
chain: MTSTFNPRECKLSKQEGQNYGFFLRIEKDTEGHLVRVVEKCSPAEKAGLQDGDRVLRINGVFVDKEEHMQVVDLVRKSGNSVTLLVLDGDSYEKAVKTRVDLKELGQSQKEQGLSDNILSPVMNGGVQTWTQPRLCYLVKEGGSYGFSLKTVQGKKGVYMTDITPQGVAMRAGVLADDHLIEVNGENVEDASHEEVVEKVKKSGSRVMFLLVDKETDKRHVEQKIQFKRETASLKLLPHQPRIVEMKKGSNGYGFYLRAGSEQKGQIIKDIDSGSPAEEAGLKNNDLVVAVNGESVETLDHDSVVEMIRKGGDQTSLLVVDKETDNMYRLAHFSPFLYYQSQELPNGSVKEAPAPTPTSLEVSSPPDTTEEVDHKPKLCRLAKGENGYGFHLNAIRGLPGSFIKEVQKGGPADLAGLEDEDVIIEVNGVNVLDEPYEKVVDRIQSSGKNVTLLVCGKKAYDYFQAKKIPIVSSLADPLDTPPDSKEGIVVESNHDSHMAKERAHSTASHSSSNSEDTEM
B1 was tested, and the binding was “binds”.
